# Laboratory results reported in the supplement of paper PMC10849652.
# Chains of the proteins cited; added tags and fusions are not shown. Lines headed by an entry give the natural chain unless they say otherwise; changes in a name come on top.
# UniProt P16591: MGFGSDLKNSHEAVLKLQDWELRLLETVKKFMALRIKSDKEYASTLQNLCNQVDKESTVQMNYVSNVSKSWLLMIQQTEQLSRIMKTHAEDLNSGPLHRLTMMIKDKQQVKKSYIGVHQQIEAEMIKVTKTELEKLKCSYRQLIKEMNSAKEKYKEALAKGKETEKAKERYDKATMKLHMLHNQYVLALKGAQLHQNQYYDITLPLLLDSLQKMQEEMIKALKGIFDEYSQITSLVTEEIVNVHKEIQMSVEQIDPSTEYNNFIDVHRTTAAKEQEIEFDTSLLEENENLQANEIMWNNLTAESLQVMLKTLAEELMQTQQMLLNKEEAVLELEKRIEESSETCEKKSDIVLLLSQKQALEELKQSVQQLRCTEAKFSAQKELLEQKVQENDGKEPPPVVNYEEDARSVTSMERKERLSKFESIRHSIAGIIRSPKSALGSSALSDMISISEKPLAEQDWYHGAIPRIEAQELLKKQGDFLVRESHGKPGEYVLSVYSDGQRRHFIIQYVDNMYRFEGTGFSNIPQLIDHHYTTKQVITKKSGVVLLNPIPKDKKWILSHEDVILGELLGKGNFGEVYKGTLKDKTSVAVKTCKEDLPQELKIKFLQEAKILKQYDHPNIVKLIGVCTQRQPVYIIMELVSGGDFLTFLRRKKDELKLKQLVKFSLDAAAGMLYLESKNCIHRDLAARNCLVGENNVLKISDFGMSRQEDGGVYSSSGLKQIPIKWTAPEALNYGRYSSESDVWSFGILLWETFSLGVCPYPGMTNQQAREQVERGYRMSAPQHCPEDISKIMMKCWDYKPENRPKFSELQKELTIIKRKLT
# UniProt Q6PJ61: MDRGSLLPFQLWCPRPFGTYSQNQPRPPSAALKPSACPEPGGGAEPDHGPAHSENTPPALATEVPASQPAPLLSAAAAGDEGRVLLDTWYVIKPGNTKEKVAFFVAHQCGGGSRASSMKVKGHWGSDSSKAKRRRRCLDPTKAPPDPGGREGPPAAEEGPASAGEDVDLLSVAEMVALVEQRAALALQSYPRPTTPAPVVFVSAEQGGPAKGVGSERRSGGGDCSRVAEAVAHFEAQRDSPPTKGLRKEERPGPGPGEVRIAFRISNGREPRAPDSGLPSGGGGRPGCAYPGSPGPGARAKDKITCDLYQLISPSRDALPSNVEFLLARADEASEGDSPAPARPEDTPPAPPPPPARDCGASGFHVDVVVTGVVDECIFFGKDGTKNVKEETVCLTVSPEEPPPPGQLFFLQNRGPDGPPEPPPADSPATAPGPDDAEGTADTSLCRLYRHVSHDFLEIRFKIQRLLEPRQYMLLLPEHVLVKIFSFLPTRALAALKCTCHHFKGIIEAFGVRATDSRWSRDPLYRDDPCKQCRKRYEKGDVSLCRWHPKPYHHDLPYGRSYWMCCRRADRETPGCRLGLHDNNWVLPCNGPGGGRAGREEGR
# UniProt Q96NB1: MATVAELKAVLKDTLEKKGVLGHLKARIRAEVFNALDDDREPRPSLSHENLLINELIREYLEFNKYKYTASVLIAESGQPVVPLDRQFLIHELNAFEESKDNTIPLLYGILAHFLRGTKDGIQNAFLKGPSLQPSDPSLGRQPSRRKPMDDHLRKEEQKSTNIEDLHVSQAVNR
# UniProt Q9NW38: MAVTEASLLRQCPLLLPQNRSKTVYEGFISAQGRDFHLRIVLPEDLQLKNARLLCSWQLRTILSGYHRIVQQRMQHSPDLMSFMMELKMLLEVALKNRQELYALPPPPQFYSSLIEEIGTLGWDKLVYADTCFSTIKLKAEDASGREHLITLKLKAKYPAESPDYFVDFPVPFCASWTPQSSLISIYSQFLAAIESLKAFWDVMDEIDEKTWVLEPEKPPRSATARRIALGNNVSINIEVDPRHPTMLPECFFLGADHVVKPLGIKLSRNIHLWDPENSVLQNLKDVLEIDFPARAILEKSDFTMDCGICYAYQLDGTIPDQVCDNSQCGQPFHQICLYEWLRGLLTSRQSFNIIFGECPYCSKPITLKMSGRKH
# UniProt Q96AY3, whole entry, looked up: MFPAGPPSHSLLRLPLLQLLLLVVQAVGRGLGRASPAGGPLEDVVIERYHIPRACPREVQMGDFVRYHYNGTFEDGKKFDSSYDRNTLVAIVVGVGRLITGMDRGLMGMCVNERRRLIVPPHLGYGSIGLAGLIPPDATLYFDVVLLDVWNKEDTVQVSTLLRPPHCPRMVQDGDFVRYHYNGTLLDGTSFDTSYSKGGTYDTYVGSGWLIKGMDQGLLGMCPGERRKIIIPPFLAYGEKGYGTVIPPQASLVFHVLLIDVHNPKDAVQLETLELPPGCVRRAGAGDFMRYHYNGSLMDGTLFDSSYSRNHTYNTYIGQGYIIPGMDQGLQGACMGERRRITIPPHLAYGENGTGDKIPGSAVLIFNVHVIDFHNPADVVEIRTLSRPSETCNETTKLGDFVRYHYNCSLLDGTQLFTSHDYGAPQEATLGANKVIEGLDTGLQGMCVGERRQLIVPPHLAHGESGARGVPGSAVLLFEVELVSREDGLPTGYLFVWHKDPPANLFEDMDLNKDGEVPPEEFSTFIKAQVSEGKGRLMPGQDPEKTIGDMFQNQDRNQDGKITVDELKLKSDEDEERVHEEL
# UniProt Q6ZRV2: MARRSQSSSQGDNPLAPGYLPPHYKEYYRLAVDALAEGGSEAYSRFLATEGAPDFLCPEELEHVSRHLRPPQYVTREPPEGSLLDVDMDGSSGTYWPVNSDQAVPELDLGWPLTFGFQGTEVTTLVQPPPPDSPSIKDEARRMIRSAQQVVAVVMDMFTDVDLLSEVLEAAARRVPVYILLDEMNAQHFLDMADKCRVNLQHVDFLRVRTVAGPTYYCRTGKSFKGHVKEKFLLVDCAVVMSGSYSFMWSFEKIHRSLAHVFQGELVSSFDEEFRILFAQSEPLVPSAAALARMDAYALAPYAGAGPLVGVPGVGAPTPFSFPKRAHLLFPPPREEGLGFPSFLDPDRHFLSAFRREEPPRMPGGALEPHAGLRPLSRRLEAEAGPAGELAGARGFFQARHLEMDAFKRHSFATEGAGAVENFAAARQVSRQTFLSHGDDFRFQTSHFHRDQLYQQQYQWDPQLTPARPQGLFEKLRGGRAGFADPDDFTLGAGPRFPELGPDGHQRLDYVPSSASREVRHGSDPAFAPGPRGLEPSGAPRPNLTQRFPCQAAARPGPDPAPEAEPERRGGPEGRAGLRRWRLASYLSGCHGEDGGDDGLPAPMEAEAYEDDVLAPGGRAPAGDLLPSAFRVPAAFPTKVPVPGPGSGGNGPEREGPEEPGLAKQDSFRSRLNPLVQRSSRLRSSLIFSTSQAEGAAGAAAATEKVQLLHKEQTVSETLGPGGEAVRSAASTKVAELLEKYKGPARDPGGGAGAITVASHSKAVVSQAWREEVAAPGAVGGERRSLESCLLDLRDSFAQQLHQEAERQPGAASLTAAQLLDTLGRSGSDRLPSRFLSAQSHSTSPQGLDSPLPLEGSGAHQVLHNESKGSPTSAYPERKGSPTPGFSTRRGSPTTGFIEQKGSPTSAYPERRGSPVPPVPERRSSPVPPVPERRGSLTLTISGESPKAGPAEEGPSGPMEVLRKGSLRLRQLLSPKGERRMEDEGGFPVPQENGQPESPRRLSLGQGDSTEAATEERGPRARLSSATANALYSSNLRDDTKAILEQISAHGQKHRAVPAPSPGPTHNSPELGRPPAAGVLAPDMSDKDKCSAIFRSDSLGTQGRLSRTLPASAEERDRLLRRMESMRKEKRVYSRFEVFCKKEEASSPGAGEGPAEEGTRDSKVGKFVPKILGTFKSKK
# UniProt P31994: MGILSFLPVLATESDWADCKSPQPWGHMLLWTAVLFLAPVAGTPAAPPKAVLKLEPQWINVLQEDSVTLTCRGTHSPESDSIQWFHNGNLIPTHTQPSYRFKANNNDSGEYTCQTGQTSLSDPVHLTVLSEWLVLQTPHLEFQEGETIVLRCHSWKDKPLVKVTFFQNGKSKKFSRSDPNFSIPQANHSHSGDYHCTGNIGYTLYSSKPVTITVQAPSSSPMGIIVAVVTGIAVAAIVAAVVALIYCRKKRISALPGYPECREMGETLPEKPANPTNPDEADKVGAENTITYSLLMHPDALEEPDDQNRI
# UniProt Q4VC44: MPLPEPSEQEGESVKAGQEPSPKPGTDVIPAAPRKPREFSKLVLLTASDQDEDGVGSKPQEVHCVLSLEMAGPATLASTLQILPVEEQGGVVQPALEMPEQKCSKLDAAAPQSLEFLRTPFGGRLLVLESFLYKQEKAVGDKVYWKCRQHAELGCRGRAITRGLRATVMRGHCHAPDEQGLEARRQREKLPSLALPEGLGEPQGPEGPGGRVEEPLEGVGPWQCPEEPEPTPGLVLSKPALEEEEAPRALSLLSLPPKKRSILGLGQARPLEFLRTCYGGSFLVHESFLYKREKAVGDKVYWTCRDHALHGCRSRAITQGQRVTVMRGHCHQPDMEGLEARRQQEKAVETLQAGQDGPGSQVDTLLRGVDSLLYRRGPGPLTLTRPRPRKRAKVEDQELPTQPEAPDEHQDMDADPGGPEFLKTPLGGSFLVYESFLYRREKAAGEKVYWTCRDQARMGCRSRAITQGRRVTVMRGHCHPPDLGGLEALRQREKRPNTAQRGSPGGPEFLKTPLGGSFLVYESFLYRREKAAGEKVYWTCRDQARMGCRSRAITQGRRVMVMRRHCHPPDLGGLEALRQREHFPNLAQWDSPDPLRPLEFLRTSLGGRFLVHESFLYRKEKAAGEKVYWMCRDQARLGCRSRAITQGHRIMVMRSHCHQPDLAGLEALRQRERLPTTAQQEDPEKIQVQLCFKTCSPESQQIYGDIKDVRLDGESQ
# UniProt Q8N0W7: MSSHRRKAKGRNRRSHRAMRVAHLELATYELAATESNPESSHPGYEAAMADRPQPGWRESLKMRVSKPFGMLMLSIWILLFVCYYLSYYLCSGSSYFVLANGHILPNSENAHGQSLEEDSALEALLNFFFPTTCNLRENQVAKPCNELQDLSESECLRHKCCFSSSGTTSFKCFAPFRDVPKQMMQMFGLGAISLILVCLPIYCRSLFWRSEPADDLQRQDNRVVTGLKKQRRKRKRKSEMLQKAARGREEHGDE
# UniProt O15360: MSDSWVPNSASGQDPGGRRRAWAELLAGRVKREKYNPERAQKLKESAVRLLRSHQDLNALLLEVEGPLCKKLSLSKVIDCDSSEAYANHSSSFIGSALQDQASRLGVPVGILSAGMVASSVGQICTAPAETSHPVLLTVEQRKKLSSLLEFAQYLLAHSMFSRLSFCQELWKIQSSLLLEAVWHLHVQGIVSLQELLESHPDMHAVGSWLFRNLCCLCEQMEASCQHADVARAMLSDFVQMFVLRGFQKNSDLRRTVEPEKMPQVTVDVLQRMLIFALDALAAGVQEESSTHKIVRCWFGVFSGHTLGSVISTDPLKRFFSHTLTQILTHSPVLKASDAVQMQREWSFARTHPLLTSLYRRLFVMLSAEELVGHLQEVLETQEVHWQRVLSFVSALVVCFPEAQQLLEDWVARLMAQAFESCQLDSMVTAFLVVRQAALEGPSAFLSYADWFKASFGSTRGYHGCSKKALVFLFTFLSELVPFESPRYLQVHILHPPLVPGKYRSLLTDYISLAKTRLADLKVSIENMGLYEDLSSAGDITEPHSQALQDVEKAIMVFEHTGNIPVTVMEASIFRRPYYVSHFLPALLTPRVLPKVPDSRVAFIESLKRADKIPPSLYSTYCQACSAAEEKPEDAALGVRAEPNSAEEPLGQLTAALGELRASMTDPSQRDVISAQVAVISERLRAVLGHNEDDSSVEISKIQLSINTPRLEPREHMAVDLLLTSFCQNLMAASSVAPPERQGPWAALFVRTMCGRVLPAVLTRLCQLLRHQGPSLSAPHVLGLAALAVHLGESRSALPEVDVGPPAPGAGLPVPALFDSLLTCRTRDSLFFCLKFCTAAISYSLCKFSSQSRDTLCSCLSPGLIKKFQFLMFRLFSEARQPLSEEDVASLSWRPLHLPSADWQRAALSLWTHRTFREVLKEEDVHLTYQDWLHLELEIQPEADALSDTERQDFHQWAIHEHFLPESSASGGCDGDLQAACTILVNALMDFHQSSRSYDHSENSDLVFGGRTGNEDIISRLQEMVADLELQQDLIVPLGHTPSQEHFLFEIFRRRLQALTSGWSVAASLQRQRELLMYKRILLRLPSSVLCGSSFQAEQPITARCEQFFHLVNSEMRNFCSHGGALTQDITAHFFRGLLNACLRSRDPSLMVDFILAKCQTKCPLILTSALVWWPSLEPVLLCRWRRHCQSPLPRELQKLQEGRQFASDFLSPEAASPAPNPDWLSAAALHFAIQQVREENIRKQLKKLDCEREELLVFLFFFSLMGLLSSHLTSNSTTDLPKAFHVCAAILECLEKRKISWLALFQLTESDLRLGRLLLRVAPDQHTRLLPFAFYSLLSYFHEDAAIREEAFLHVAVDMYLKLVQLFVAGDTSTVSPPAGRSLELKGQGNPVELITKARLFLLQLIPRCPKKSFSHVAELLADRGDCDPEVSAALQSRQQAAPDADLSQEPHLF
# This is one part of the list.
# Assays:
# Assay in all cases: log2 fold change, soluble protein after heating vs DMSO (PISA); higher = thermal stabilisation; K562 lysate, 10 uM; active = over 0.2 and 3.5 SD of the protein, either way, in both replicates (recomputed)
# [1] = compound: O=C1NC(=O)C(c2cnc3ccccn23)=C1c1cn2c3c(cc(F)cc13)CN(C(=O)N1CCCCC1)CC2
# Summary of the method: (§1)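 Thermal stability, expressed as log-two fold change relative to solvent controls, is given from duplicates. Crude K562 extract in PBS pH 7.4 with 1 mM MgCl2, at 1 mg/mL protein, was treated with 10 μM compound for 30 min and heated in aliquots for 3 min across 48°C-58°C. After pooling, adjustment to 0.5% NP-40 at 4°C and centrifugation at 21,000xg for 90 min, supernatant protein was measured by TMTpro 16plex LC-MS/MS with channel sums equalised.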
# [2] = compound: NCC(=O)Nc1ccc(-n2nc(C(F)(F)F)cc2-c2ccc3c(ccc4ccccc43)c2)cc1
# Summary of the method: as §1
# entospletinib = compound: c1cn2cc(-c3ccc4cn[nH]c4c3)nc(Nc3ccc(N4CCOCC4)cc3)c2n1 [entospletinib]
# Summary of the method: as §1
# vorinostat = compound: O=C(CCCCCCC(=O)Nc1ccccc1)NO [vorinostat]
# Summary of the method: as §1
# silmitasertib = compound: O=C(O)c1ccc2c(c1)nc(Nc1cccc(Cl)c1)c1ccncc12 [silmitasertib]
# Summary of the method: as §1
target,measurement,setting,value
FER isoform 3 (UniProt P16591),log2 fold change,[1],inactive: 0
FBXO46 (UniProt Q6PJ61),log2 fold change,[2],inactive: -0.093
same,log2 fold change,[1],inactive: -0.011
same,log2 fold change,entospletinib,inactive: 0.019
FOPNL (UniProt Q96NB1),log2 fold change,[2],inactive: 0.01
same,log2 fold change,[1],inactive: -0.029
same,log2 fold change,entospletinib,inactive: -0.009
FAT1 (UniProt Q14517),log2 fold change,vorinostat,inactive: -0.229
same,log2 fold change,silmitasertib,inactive: 0.077
same,log2 fold change,[1],inactive: -0.196
same,log2 fold change,entospletinib,inactive: -0.034
FANCL isoform 2 (UniProt Q9NW38),log2 fold change,vorinostat,inactive: -0.473
same,log2 fold change,silmitasertib,inactive: 0.08
same,log2 fold change,[1],inactive: -0.076
same,log2 fold change,entospletinib,inactive: 0.101
FKBP10 (UniProt Q96AY3),log2 fold change,entospletinib,inactive: 0.012
FAM83H (UniProt Q6ZRV2),log2 fold change,[2],inactive: 0.03
same,log2 fold change,entospletinib,inactive: 0.127
FBXL19 (UniProt Q6PCT2),log2 fold change,vorinostat,inactive: 0.022
same,log2 fold change,silmitasertib,inactive: 0.044
same,log2 fold change,[1],inactive: 0.06
FCGR2B (UniProt P31994),log2 fold change,[1],inactive: -0.003
same,log2 fold change,entospletinib,inactive: -0.087
FLYWCH1 isoform 3 (UniProt Q4VC44),log2 fold change,[1],inactive: 0.022
FMR1NB (UniProt Q8N0W7),log2 fold change,[1],inactive: -0.073
FANCA (UniProt O15360),log2 fold change,[2],inactive: 0.046
same,log2 fold change,[1],inactive: -0.249
same,log2 fold change,entospletinib,inactive: -0.032
FANCF (UniProt Q9NPI8),log2 fold change,[1],inactive: -0.114
FIP1L1 isoform 3 (UniProt Q6UN15),log2 fold change,vorinostat,inactive: 0.048
same,log2 fold change,silmitasertib,inactive: -0.002
same,log2 fold change,[1],inactive: -0.037
same,log2 fold change,entospletinib,inactive: 0.024
FASTKD3 (UniProt Q14CZ7),log2 fold change,entospletinib,inactive: 0.008

# A second format for some results above:
target	measurement	setting	value
FBXL19 (UniProt Q6PCT2)	log2 fold change	silmitasertib	inactive: 0.044
same	log2 fold change	[1]	inactive: 0.06
